Measurements published in PubChem BioAssay AID1487 (National Center for Advancing Translational Sciences (NCATS), 2009).
This is one part of the list. The main result of the screen is listed elsewhere. These columns were measured beside it and carry no call. The list favours compounds with an active or inconclusive main result. The note in brackets gives the kind of curve behind each potency; many fits are weak.

Test: qHTS Assay for Modulators of Lamin A Splicing
Details: HeLa LMNA splicing GFP/RFP minigene ratio, 48 h
Outline: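 S3 HeLa stable clones carrying a lamin A-EGFP splicing minigene plus DsRed2 were seeded at 600 cells/well in Opti-MEM with 2% FBS, pin-dosed and incubated 48 h at 37°C. Acumen cytometry (488 nm) gave the GFP/RFP total-intensity ratio.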

[1] = measured here: GFP splicing reporter channel
[2] = measured here: RFP viability control channel

Compound	AC50 [1]	AC50 [2]
CCOC(=O)Nc1cccc(OCC(=O)Nc2ccc(OC)cc2OC)c1	11.2 µM [rising, partial curve]	15.8 µM [rising, partial curve]
N=C1S/C(=C\c2ccc(-c3cccc(Cl)c3)o2)C(=O)N1c1nccs1		2.51 µM [rising, full curve]
COCCNC(=O)CCCn1c(=O)c2cc(OC)c(OC)cc2n(CC(=O)NCCC2=CCCCC2)c1=O	0.794 µM [rising, full curve, poor fit]	0.631 µM [rising, full curve, poor fit]
COc1cc(NC(=O)CN2C(=O)C(c3ccccc3)=NC23CCCCCC3)cc(OC)c1		17.8 µM [rising, single point]
Cc1cc(N2CCC(C(=O)N3CCN(c4cccc(C)c4C)CC3)CC2)n2ncnc2n1	0.891 µM [rising, partial curve]	11.2 µM [rising, partial curve]
Oc1ccc2ccccc2c1CN1CCCC1	0.00447 µM [rising, full curve, poor fit]	
O=Cc1ccc(Sc2nnc(-c3ccccc3)o2)c([N+](=O)[O-])c1	22.4 µM [falling, single point]	
CCC(=O)N(CC)c1nc(-c2ccc(OC)cc2)cs1	11.2 µM [rising, single point]	15.8 µM [rising, single point]
Cc1ccccc1NC(=S)NNC(=O)c1cccc(Br)c1	0.282 µM [falling, full curve, poor fit]	0.631 µM [falling, full curve, poor fit]
N/C(=N/OS(=O)(=O)c1ccc([N+](=O)[O-])cc1)c1ccncc1	0.501 µM [rising, full curve, poor fit]	
CC(/C=C1\SC(=S)N(NC(=O)c2cccc(O)c2)C1=O)=C\c1ccccc1		35.5 µM [rising, single point]
COc1cc(C(=O)NC(=S)Nc2ccc(NC(=O)c3ccco3)cc2)cc(OC)c1OC	35.5 µM [falling, single point]	35.5 µM [falling, single point]
CC(C)c1ccc(C(=O)Nc2cc(-c3ccccc3F)nn2-c2ccccc2)cc1	0.0282 µM [rising, full curve, poor fit]	
O=C1C2C3C=CC(CC3)C2C(=O)N1/N=C/c1ccc(O)c(O)c1 (stereo unspecified)	35.5 µM [falling, single point]	
COc1ccc(CN2CCN(CC=C(C)C)C(CCO)C2)cc1Cn1cccn1 (stereo unspecified)		0.00501 µM [falling, full curve, poor fit]
O=C(C1CCC(CNS(=O)(=O)c2cccc3cccnc23)CC1)N1CCc2ccccc21 (stereo unspecified)		15.8 µM [rising, single point]
CCOc1nc(C)cc(COC)c1C(N)=O	0.562 µM [rising, full curve, poor fit]	
Cc1ccc(C)c(OCC(=O)Nc2ccc3c(c2)OCO3)c1		17.8 µM [rising, partial curve, poor fit]
C=CCNCCCOc1ccc(Cl)cc1C(C)(C)C	35.5 µM [falling, single point]	
CSc1ccccc1NC(=O)C1CC(c2ccccc2O)=NO1 (stereo unspecified)	17.8 µM [rising, partial curve, poor fit]	14.1 µM [rising, partial curve]
Cc1ccc(-c2nc(CCN3C(=O)c4ccccc4C3=O)cs2)cc1	12.6 µM [falling, single point]	
Cc1cccc(C(=O)N2CCc3cc(CNS(=O)(=O)c4ccc(Cl)s4)ccc32)c1	0.398 µM [rising, single point]	
CC(Sc1ncc(C(F)(F)F)cc1Cl)C(=O)NC(N)=O (stereo unspecified)	0.501 µM [rising, partial curve, poor fit]	
O=C(NCc1ccccc1)c1ccc(CSc2nc3cccnc3n2Cc2cccc(F)c2)cc1	11.2 µM [falling, partial curve]	17.8 µM [falling, partial curve]
Cc1ccc(C(=O)c2cnc3cc4c(cc3c2S(=O)(=O)c2ccccc2)OCCO4)cc1	12.6 µM [falling, partial curve, poor fit]	
COc1ccc(CN(C)C(C)C(=O)Nc2ccc([N+](=O)[O-])cc2Cl)cc1OC (stereo unspecified)	14.1 µM [rising, partial curve]	20 µM [rising, partial curve]
COc1cc2nc(C3CCC3)nc(N3CCN(c4ccccn4)CC3)c2cc1OC	11.2 µM [rising, single point]	15.8 µM [rising, single point]
CCOC(=O)c1sc(NC(=O)c2ccc(S(=O)(=O)N3CCOCC3)cc2)nc1-c1ccccc1		31.6 µM [rising, single point]

Compound	AC50 [1]	AC50 [2]
COc1cc(OC)c(C(=O)OC(C)C(=O)Nc2cc(C(F)(F)F)ccc2Cl)cc1OC (stereo unspecified)	11.2 µM [rising, single point]	20 µM [rising, partial curve]
O=C(c1ccncc1)c1ccc(Br)cc1		17.8 µM [rising, single point]
Cc1ccccc1CN1C(=O)c2ccccc2Sc2ccc(C(=O)N3CCCC3)cc21		0.0316 µM [falling, full curve, poor fit]
CCCc1nc2ccccc2n2c(-c3ccccc3)c3c(=O)n(C)c(=O)n(C)c3c12	12.6 µM [rising, single point]	20 µM [rising, single point]
O=C1CCCc2c1[nH]c1ccc(Cl)cc21		1.41 µM [falling, full curve]
COc1ccc(CNC(=O)c2cc(SC)ccc2Cl)cc1OC		14.1 µM [rising, single point]
Cc1cccc(CN2CCN(C(=S)Nc3ccccc3)CC2)c1	20 µM [falling, partial curve, poor fit]	22.4 µM [falling, partial curve, poor fit]
Cc1cc(C(=O)COc2ccccc2C(N)=O)c(C)n1C		22.4 µM [rising, single point]
COc1cc2c(cc1O)CC[C@@H]1[C@@H]2CC[C@]2(C)[C@@H](O)CC[C@@H]12		8.91 µM [falling, partial curve]
O=[N+]([O-])c1ccc(OCc2cccc(COc3ccc([N+](=O)[O-])cc3)n2)cc1	17.8 µM [rising, partial curve, poor fit]	12.6 µM [rising, partial curve]
COC(=O)c1ccc(-c2ccc(/C=N/N3C(=O)C4C5C=CC(C6CC56)C4C3=O)o2)cc1 (stereo unspecified)		0.316 µM [rising, full curve]
CC1CCN(C(=O)/C=C/c2ccc(C(C)(C)C)cc2)CC1	12.6 µM [rising, partial curve]	25.1 µM [rising, single point]
CCc1nnc(NC(=O)CCN(c2cc(C)cc(C)c2)S(=O)(=O)c2ccc(Cl)cc2)s1		2.51 µM [rising, full curve, poor fit]
CCOc1ccc(C2C(C#N)=C(N)Oc3n[nH]c(C)c32)cc1OC(=O)C1CC1 (stereo unspecified)		0.224 µM [falling, full curve, poor fit]
C[C@]12CC[C@H]3c4ccc(O)cc4CC[C@@H]3[C@H]1CC[C@@H]2OP(=O)(O)O	4.47 µM [rising, full curve, poor fit]	35.5 µM [falling, single point]
CC(C)Cn1c(=O)c(C(=O)NCc2ccccn2)c(O)c2ccccc21		15.8 µM [rising, single point]
O=C(CCN1CCc2ccccc21)c1ccc2c(c1)OCCO2	3.55 µM [rising, full curve, poor fit]	12.6 µM [rising, partial curve]
O=C(CSc1nc2c([nH]c3ccccc32)c(=O)n1-c1ccc(Cl)cc1)N1CCOCC1		0.0708 µM [rising, full curve, poor fit]
Cc1nc(SCC(=O)NCc2ccc3c(c2)OCO3)c(C#N)c2c1CCCC2	31.6 µM [rising, single point]	17.8 µM [rising, single point]
Cc1ccc(-c2nnn(CC(=O)Nc3ccccc3N3CCOCC3)n2)cc1	12.6 µM [rising, single point]	25.1 µM [rising, single point]
Cc1ccc(C(=O)N(CC(=O)NC2CCCCC2)c2ccccc2F)s1	0.0251 µM [rising, full curve, poor fit]	
O=C(Nc1ccc(Cl)c(Cl)c1)OCc1cccnc1		25.1 µM [rising, single point]
S=C(Nc1ccc(Cl)cc1)N1CCCCC1	17.8 µM [rising, single point]	20 µM [rising, single point]
CC(C)(C)NC(=O)NC(=O)CN1CCC(Cc2ccccc2)CC1	11.2 µM [rising, partial curve, poor fit]	20 µM [rising, single point]
Cc1ccc(-n2nc(C)c(NC(=O)CCl)c2C)cc1C		2.24 µM [falling, partial curve, poor fit]
Cn1ccnc1/C(=N\NC(=O)c1ccccc1)c1cccc([N+](=O)[O-])c1		0.794 µM [falling, single point]
O=C(Nc1cccc(Cl)c1)OCc1cncs1		17.8 µM [rising, single point]

Full records, quoted from the list:
Cn1ccnc1/C(=N\NC(=O)c1ccccc1)c1cccc([N+](=O)[O-])c1 as listed: AC50 [2]: 0.794 µM [falling, single point]
C[C@]12CC[C@H]3c4ccc(O)cc4CC[C@@H]3[C@H]1CC[C@@H]2OP(=O)(O)O as listed: AC50 [1]: 4.47 µM [rising, full curve, poor fit]; AC50 [2]: 35.5 µM [falling, single point]
CCOc1ccc(C2C(C#N)=C(N)Oc3n[nH]c(C)c32)cc1OC(=O)C1CC1 (stereo unspecified) as listed: AC50 [2]: 0.224 µM [falling, full curve, poor fit]
O=C(Nc1cccc(Cl)c1)OCc1cncs1 as listed: AC50 [2]: 17.8 µM [rising, single point]
